This is one part of the list. These are further read-outs of the screen, such as a control signal, another cell line or another target. No call is given for them. The list favours compounds with an active or inconclusive main result. Words in brackets tell the shape of the fitted curve; partial curves, single points and poor fits give uncertain potencies.
Test: qHTS Assay for Lipid Storage Modulators in Drosophila S3 Cells;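 for cell number change: cells counted by Cell Tracker Red CMTPX staining in the red channel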
Conditions: BODIPY lipid droplet fluorescence, 18-24 h; for cell number change: measured here: cell count max response, cells fed with added oleic acid
How it was run: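 Laser-scanning cytometry quantifies lipid droplet accumulation (500–530 nm total intensity; droplet/cell object ratio) in oleic acid-fed (400 uM added) Drosophila S3 cells treated with a concentration series. 20 uM Triacsin C defined 100% inhibition.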

[1] = measured here: lipid fluorescence (Fed channel) AC50, cells fed with added oleic acid
[2] = measured here: cell number channel AC50, cells fed with added oleic acid

SMILES | cell number change | AC50 [1] | AC50 [2]
CC(Sc1ncccn1)C(=O)NC1CCCC1 (configuration not stated) | -1.75% | 13 µM [rising, partial curve] | 
OC(CNCc1ccccc1F)COc1cccc2ccccc12 (configuration not stated) | 18.3% |  | 
Cc1cccc(OCC(=O)OCC(=O)c2c(N)n(C)c(=O)n(C)c2=O)c1C | -50.5% | 0.058 µM [falling, full curve, poor fit] | 23.1 µM [falling, single point]
CCCN(C(=O)CSCC(=O)Nc1ccc(OC)cc1)c1c(N)n(Cc2ccccc2)c(=O)[nH]c1=O |  | 1.84 µM [rising, partial curve] | 
O=C(Nc1ccc2snnc2c1)N1CCN(c2ccccc2)CC1 | -27.3% | 29.1 µM [falling, single point] | 
CC(CC(=O)N1CCN(C(=O)c2ccccc2)CC1)c1ccccc1 (configuration not stated) | 3.55% | 6.51 µM [rising, partial curve, poor fit] | 
O=C(CCc1nnc(Cc2ccc3c(c2)OCO3)o1)NCCc1ccccc1Cl |  |  | 6.51 µM [rising, single point]
CC1(C)C[C@H]2C3=CCC4[C@@]5(C)CC[C@H](O)[C@](C)(CO)C5CC[C@@]4(C)[C@]3(C)C[C@H]3O[C@@H]1[C@H](O)[C@]32CO (some centres not stated) | -43.8% | 6.51 µM [falling, full curve, poor fit] | 2.06 µM [falling, full curve]
O=C(COc1ccc(S(=O)(=O)N2CCOCC2)cc1Cl)NCCCn1ccnc1 | -6.58% |  | 
CC(=O)NC(Cc1ccc(F)cc1)C(=O)NC1CCN(C(=O)Nc2ccccc2C)CC1 (configuration not stated) | 1.25% | 16.4 µM [rising, single point] | 
Cc1cccc(OCc2nnc(SCC(=O)NC3CCCC3)n2C)c1 | 1.9% |  | 
CCn1cc(C(=O)N[C@@H](CCSC)C(=O)NC(C)(C)CO)c(=O)c2cc3c(cc21)OCO3 | 27% | 8.2 µM [rising, partial curve, poor fit] | 
COCC(=O)N1CCC(n2nnc3cc(C(F)(F)F)ccc32)CC1 | -1.19% |  | 
COc1cc(C=Nc2c(C)cc(C)cc2C)ccc1OC(C)=O | -47.1% |  | 29.1 µM [falling, single point]
O=C(N/N=C\c1cccs1)c1ccccc1-n1cccc1 | 1.03% | 0.651 µM [rising, partial curve, poor fit] | 1.03 µM [rising, full curve]
CCc1ccc(N(CC)c2ncnc3nc[nH]c23)cc1 | -20% | 18.4 µM [falling, single point] | 
Cc1cc(C)n(CC(=O)n2nc(C)cc2C)n1 | -72.8% | 6.51 µM [falling, single point] | 14.6 µM [falling, partial curve]

Nothing new here: entries from further up.
SMILES | cell number change | AC50 [1] | AC50 [2]
Cc1cccc(OCC(=O)OCC(=O)c2c(N)n(C)c(=O)n(C)c2=O)c1C | -50.5% | 0.058 µM [falling, full curve, poor fit] | 23.1 µM [falling, single point]
CCCN(C(=O)CSCC(=O)Nc1ccc(OC)cc1)c1c(N)n(Cc2ccccc2)c(=O)[nH]c1=O |  | 1.84 µM [rising, partial curve] | 
O=C(Nc1ccc2snnc2c1)N1CCN(c2ccccc2)CC1 | -27.3% | 29.1 µM [falling, single point] | 
CC(CC(=O)N1CCN(C(=O)c2ccccc2)CC1)c1ccccc1 (configuration not stated) | 3.55% | 6.51 µM [rising, partial curve, poor fit] | 

From PubChem BioAssay AID2685 (National Center for Advancing Translational Sciences (NCATS), 2010)
